According to PMC12355757, “TRIM6 ablation reverses ICB resistance in MSS gastric cancer by unleashing cGAS-STING-dependent antitumor immunity” (Journal of Experimental & Clinical Cancer Research : CR, 2025):
These are yes or no findings as the source states them, for the method shown. For some of these results: Binding calls can cover weak binding; strength is not graded here.

Amino acid sequences for entries named in this document (tags omitted). A change or cut given only in a name is not applied to a line headed by its entry.
UniProt Q9C030: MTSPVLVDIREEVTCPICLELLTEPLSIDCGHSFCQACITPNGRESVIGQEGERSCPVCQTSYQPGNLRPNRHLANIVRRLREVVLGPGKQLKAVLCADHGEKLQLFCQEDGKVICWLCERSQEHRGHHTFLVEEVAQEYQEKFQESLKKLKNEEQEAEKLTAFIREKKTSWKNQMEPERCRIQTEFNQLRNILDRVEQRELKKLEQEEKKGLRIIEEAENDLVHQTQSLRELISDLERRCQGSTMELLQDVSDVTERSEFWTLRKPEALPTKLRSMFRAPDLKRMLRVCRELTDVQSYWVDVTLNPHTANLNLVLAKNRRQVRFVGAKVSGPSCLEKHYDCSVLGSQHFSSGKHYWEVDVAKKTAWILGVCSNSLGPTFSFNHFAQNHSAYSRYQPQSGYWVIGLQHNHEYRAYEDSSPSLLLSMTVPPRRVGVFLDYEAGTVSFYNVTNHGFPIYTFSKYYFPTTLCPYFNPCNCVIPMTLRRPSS
UniProt Q8N884: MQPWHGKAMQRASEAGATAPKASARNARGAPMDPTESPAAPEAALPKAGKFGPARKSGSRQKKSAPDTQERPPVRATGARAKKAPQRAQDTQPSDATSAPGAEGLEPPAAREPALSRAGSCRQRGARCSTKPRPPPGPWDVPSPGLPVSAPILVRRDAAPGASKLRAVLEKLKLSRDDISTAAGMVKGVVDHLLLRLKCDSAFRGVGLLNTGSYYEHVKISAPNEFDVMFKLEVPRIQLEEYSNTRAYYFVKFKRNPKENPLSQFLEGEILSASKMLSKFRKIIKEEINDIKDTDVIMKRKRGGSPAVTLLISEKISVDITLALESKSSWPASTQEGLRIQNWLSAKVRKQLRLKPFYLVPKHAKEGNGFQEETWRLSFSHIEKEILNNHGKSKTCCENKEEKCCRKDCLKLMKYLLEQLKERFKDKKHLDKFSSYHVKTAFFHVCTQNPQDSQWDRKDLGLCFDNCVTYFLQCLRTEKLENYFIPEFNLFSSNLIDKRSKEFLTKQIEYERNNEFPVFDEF

Key:
Assay in all cases: pull-down; purified His-cGAS incubated with GST, GST-TRIM6 or its truncated mutants on GST-tag resin overnight at 4 °C; 50 mM Tris pH 8.0, 200 mM NaCl, 1 mM EDTA, 1% NP-40, 1 mM DTT, 1 mM MgCl2; immunoblot with anti-His or anti-cGAS; both purified
GST-TRIM6 ΔCC (human) = GST-TRIM6 ΔCC (human) (UniProt Q9C030)
GST-TRIM6 ΔRING (human) = GST-TRIM6 ΔRING (human) (UniProt Q9C030)
GST-TRIM6 ΔBbox (human) = GST-TRIM6 ΔBbox (human) (UniProt Q9C030)
[1] = target: GST-TRIM6 ΔPRY-SPRY (human) (UniProt Q9C030)

binding (GST-TRIM6 ΔCC (human)): no binding | binding (GST-TRIM6 ΔRING (human)): binds | binding (GST-TRIM6 ΔBbox (human)): binds | binding [1]: no binding
Substance: Recombinant His-cGAS (from UniProt Q8N884 1-522) (enzyme)
